Measurements: article doi:10.1101/2022.10.27.514150
No constants are given. Whether binding was seen depends on the method and setting. In cells and extracts the contact can be indirect. Some results given as binding are weak or reduced against the parent protein; the word gives no strength. For some assays here: Where a sequence is shown, tags or fusion partners need not be part of it.

The chains behind the UniProt entries cited, without tags or fusion partners. Where a name states a change or a piece, a line headed by the entry shows the natural chain unless it says otherwise.
UniProt Q16254, whole entry: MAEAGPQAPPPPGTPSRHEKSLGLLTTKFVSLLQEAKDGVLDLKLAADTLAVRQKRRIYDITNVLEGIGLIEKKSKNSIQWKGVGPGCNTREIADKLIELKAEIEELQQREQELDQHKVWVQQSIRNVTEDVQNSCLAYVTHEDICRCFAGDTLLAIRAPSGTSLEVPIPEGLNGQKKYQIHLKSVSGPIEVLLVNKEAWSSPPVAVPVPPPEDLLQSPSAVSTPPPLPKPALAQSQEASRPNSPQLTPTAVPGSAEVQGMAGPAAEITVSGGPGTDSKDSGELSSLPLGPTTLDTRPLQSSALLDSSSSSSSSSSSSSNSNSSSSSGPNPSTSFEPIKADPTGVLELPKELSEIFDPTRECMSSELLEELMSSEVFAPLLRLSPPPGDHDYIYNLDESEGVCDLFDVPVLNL

How the values were obtained:
[1] = target: endogenous E2F4 (38HK) (human (endogenous in 38HK)), Q16254; experiment: co-IP; conditions: remark: other sources report otherwise
[2] = target: endogenous E2F4 (38HK) (human (endogenous in 38HK)) (UniProt Q16254); experiment: co-IP

B1: endogenous retinoblastoma-like 2 (RBL2/p130) (38HK), Q08999 1-1139 (protein)
chain: MPSGGDQSPPPPPPPPAAAASDEEEEDDGEAEDAAPPAESPTPQIQQRFDELCSRLNMDEAARAEAWDSYRSMSESYTLEGNDLHWLACALYVACRKSVPTVSKGTVEGNYVSLTRILKCSEQSLIEFFNKMKKWEDMANLPPHFRERTERLERNFTVSAVIFKKYEPIFQDIFKYPQEEQPRQQRGRKQRRQPCTVSEIFHFCWVLFIYAKGNFPMISDDLVNSYHLLLCALDLVYGNALQCSNRKELVNPNFKGLSEDFHAKDSKPSSDPPCIIEKLCSLHDGLVLEAKGIKEHFWKPYIRKLYEKKLLKGKEENLTGFLEPGNFGESFKAINKAYEEYVLSVGNLDERIFLGEDAEEEIGTLSRCLNAGSGTETAERVQMKNILQQHFDKSKALRISTPLTGVRYIKENSPCVTPVSTATHSLSRLHTMLTGLRNAPSEKLEQILRTCSRDPTQAIANRLKEMFEIYSQHFQPDEDFSNCAKEIASKHFRFAEMLYYKVLESVIEQEQKRLGDMDLSGILEQDAFHRSLLACCLEVVTFSYKPPGNFPFITEIFDVPLYHFYKVIEVFIRAEDGLCREVVKHLNQIEEQILDHLAWKPESPLWEKIRDNENRVPTCEEVMPPQNLERADEICIAGSPLTPRRVTEVRADTGGLGRSITSPTTLYDRYSSPPASTTRRRLFVENDSPSDGGTPGRMPPQPLVNAVPVQNVSGETVSVTPVPGQTLVTMATATVTANNGQTVTIPVQGIANENGGITFFPVQVNVGGQAQAVTGSIQPLSAQALAGSLSSQQVTGTTLQVPGQVAIQQISPGGQQQKQGQSVTSSSNRPRKTSSLSLFFRKVYHLAAVRLRDLCAKLDISDELRKKIWTCFEFSIIQCPELMMDRHLDQLLMCAIYVMAKVTKEDKSFQNIMRCYRTQPQARSQVYRSVLIKGKRKRRNSGSSDSRSHQNSPTELNKDRTSRDSSPVMRSSSTLPVPQPSSAPPTPTRLTGANSDMEEEERGDLIQFYNNIYIKQIKTFAMKYSQANMDAPPLSPYPFVRTGSPRRIQLSQNHPVYISPHKNETMLSPREKIFYYFSNSPSKRLREINSMIRTGETPTKKRGILLEDGSESPAKRICPENHSALLRRLQDVANDRGSH
- binding [1]: binds

B2: HA-ΔNp73α (protein, UniProt O15350-8 1-587)
chain: MLYVGDPARHLATAQFNLLSSTMDQMSSRAASASPYTPEHAASVPTHSPYAQPSSTFDTMSPAPVIPSNTDYPGPHHFEVTFQQSSTAKSATWTYSPLLKKLYCQIAKTCPIQIKVSTPPPPGTAIRAMPVYKKAEHVTDVVKRCPNHELGRDFNEGQSAPASHLIRVEGNNLSQYVDDPVTGRQSVVVPYEPPQVGTEFTTILYNFMCNSSCVGGMNRRPILIIITLEMRDGQVLGRRSFEGRICACPGRDRKADEDHYREQQALNESSAKNGAASKRAFKQSPPAVPALGAGVKKRRHGDEDTYYLQVRGRENFEILMKLKESLELMELVPQPLVDSYRQQQQLLQRPSHLQPPSYGPVLSPMNKVHGGMNKLPSVNQLVGQPPPHSSAATPNLGPVGPGMLNNHGHAVPANGEMSSSHSAQSMVSGSHCTPPPPYHADPSLVSFLTGLGCPNCIEYFTSQGLQSIYHLQNLTIEDLGALKIPEQYRMTIWRGLQDLKQGHDYSTAQQLLRSSNAATISIGGSGELQRQRVMEAVHFRVRHTITIPNRGGPGGGPDEWADFGFDLPDCKARKQPIKEEFTEAEIH
- binding [2]: binds
